# The list shows a part of the results.
# The chains behind the UniProt entries cited, without tags or fusion partners.
# UniProt Q0JBA9, entry or part of it: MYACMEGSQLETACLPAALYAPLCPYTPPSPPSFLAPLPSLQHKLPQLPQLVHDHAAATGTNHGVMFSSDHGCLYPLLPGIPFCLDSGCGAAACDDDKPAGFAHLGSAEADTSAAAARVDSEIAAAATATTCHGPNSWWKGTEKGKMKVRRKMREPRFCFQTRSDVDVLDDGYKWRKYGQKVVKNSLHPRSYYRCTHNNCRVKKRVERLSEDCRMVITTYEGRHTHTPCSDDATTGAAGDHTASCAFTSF
# Biological target: OsWRKY34 (Oryza sativa, UniProt Q0JBA9 1-250)
# Experiment: protein-binding microarray (RPBM); PBS, 2% BSA, 51.3 ng/ul salmon testes DNA, 50 uM zinc acetate, 200 nM TF, 25 C, 1 h; high values mean tight binding
# Settings: protein: recombinant; tags: N-terminal polyhistidine and DsRed monomer fusion (pET32a); label: CyDye5-dUTP incorporated in the synthesized complementary strand; 3' TTTTT single-stranded linker to array surface; dsDNA, one strand shown
# Method in brief: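 An Axon 4000B scanner gave the binding signal as per-feature fluorescence intensity in arbitrary units. This followed washing of a custom Agilent array that had been incubated for 1 h at 25 °C with 200 nM protein in PBS, 2% BSA, salmon testes DNA and 50 µM zinc acetate. The proteins were transcription factors fused at the N-terminus to polyhistidine and DsRed, expressed in E. coli BL21-CodonPlus and purified on Ni–NTA.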
row,Sequence,binding signal
1,CTAATTTTTAGTCTAACAGCAGCTTTCAAACCGCATTCTTCGGAGTCACCTAGTGCAG,9250 fluorescence intensity (a.u.)
2,TCAGTCGTCACCCCATCATTCTCACGCAATGGGTCAGCAACGGAGTCACCTAGTGCAG,9310 fluorescence intensity (a.u.)
3,CACGTCTCAGCTCATTCGTCCTCGTCGCGCGCACACGATCCGGAGTCACCTAGTGCAG,8600 fluorescence intensity (a.u.)
4,CTTGCTGTTCATCCTTCTTCTCAAAGAATCTCATATCCCCCGGAGTCACCTAGTGCAG,10400 fluorescence intensity (a.u.)
5,CACAAAACTCAGCACGCGGCTATTCACATACTATCGCCAACGGAGTCACCTAGTGCAG,9430 fluorescence intensity (a.u.)
6,CATCTGTGCCGTATGTATTGCATTCGCGCCGCCGCCGCCGCGGAGTCACCTAGTGCAG,10900 fluorescence intensity (a.u.)
7,TAGTAGTAGGGTGTTGTGTGGCGCCTCTCGCCGCGAAACGCGGAGTCACCTAGTGCAG,9210 fluorescence intensity (a.u.)
8,CTACTATGCAAATAATTTTGCCCGTGTTTTACCCCTTTTTCGGAGTCACCTAGTGCAG,9630 fluorescence intensity (a.u.)
9,AACTCACGTCTCCGTCTCCTCGTAGTATCTGACTTTTAAGCGGAGTCACCTAGTGCAG,11400 fluorescence intensity (a.u.)
10,CCTTGGGTGTACTTTTTCCTATCCGCGTTCTTTGACACGACGGAGTCACCTAGTGCAG,13600 fluorescence intensity (a.u.)
11,TTGTTGAGGTCCACCACCAGCGTCACGCCCTGCAGCGGTCCGGAGTCACCTAGTGCAG,8820 fluorescence intensity (a.u.)
12,GCACCTCGGCCTCCTTTTCCACACTTTTCACCGTGTTCCTCGGAGTCACCTAGTGCAG,8960 fluorescence intensity (a.u.)
13,CGGATACAGCGGGTAGTTGCTTTTACATGGGTTGCAGGATCGGAGTCACCTAGTGCAG,9150 fluorescence intensity (a.u.)
14,ATATATTTGTCTTGGGTTGAAAATGTTACTATTTTTCTCTCGGAGTCACCTAGTGCAG,10700 fluorescence intensity (a.u.)
15,AAACCTTTGGACATGTCATTTTGGACCTAACCACATCCTTCGGAGTCACCTAGTGCAG,10900 fluorescence intensity (a.u.)
16,GTGTCTCCCAGAGGGGAGTTGGTGGTGTTCCTGGAGCTTCCGGAGTCACCTAGTGCAG,8280 fluorescence intensity (a.u.)
17,GGTTGTTGAGTTGTGTGTGAGGCGTATATAACGCCAGCCTCGGAGTCACCTAGTGCAG,10200 fluorescence intensity (a.u.)
18,GGTCACCACTTGTCAAGTTGTCATCATCACTGGCCTACTCCGGAGTCACCTAGTGCAG,8490 fluorescence intensity (a.u.)
19,ACCTTGCCTCGCCTCGCCTCGCCGGATCCAGATCTCCACCCGGAGTCACCTAGTGCAG,8250 fluorescence intensity (a.u.)
20,TATTTTTATCTAAACTTAGTCAAACGTAAAGAAGTTTGACCGGAGTCACCTAGTGCAG,8180 fluorescence intensity (a.u.)
21,CAAGATGGCTACACTGTCACTCACTCACTCCGCCGCTTTTCGGAGTCACCTAGTGCAG,9420 fluorescence intensity (a.u.)

row,Sequence,binding signal
1,TCTGGGTCGGCTGTTTGTGTATTACACTTACTATGAATCTCGGAGTCACCTAGTGCAG,11700 fluorescence intensity (a.u.)
2,GGTTTTGGTTGGGGTTTTGATACCGTCTGAGCCTGCGATTCGGAGTCACCTAGTGCAG,10900 fluorescence intensity (a.u.)
3,GCATCTACCCGTCCAACTCATTTATCAGCATGCAAATTTTCGGAGTCACCTAGTGCAG,9190 fluorescence intensity (a.u.)
4,CATAAAGAGGGTGGTCGCGTTTCTTCTTCCATTTTTAATTCGGAGTCACCTAGTGCAG,10400 fluorescence intensity (a.u.)
5,ACATATTATCGCATCTTCATTTTTTCTTTTCATGTGCCTTCGGAGTCACCTAGTGCAG,10800 fluorescence intensity (a.u.)
6,AGCATATCTATCCATCCACCTGCGCCGATCTCTGTAACCTCGGAGTCACCTAGTGCAG,9720 fluorescence intensity (a.u.)
7,ATACGACATTCACCAGTAATCTAATGATCCAATGATCCTACGGAGTCACCTAGTGCAG,8360 fluorescence intensity (a.u.)
8,CCAGCGACCCACCGGCCACCACCTCGCACTCTCCGTCTCCCGGAGTCACCTAGTGCAG,13800 fluorescence intensity (a.u.)
9,CCACAGCACCGCCCACCTGAGCCGAGCCCGCTGCAAAATACGGAGTCACCTAGTGCAG,9420 fluorescence intensity (a.u.)
10,GATGAGATTTGTCTGCCCCGATTGGTTTTCTCCATTTCTTCGGAGTCACCTAGTGCAG,9280 fluorescence intensity (a.u.)
11,CACTCTACCTAGCTTACACCTACCCACATCAACCTTACACCGGAGTCACCTAGTGCAG,12300 fluorescence intensity (a.u.)
12,GCGGGCGCACGGGTGGGTGGTGTTCTGGGGCGGAGGCAGCCGGAGTCACCTAGTGCAG,16000 fluorescence intensity (a.u.)
13,TTCCTACCATCACTTCTCTCGTTTTGCTATCGATCTCATGCGGAGTCACCTAGTGCAG,9180 fluorescence intensity (a.u.)
14,AGCCACGACCCAATCTTCGCTGCGGTTGACTTTAAATTAACGGAGTCACCTAGTGCAG,9760 fluorescence intensity (a.u.)
15,CCTTACATATTCATGCACCACTCCACCCATAACGGGTCAACGGAGTCACCTAGTGCAG,9100 fluorescence intensity (a.u.)
16,CACACCTCTCACAATAATTATGGATGTTATACCTGGTAATCGGAGTCACCTAGTGCAG,9340 fluorescence intensity (a.u.)
17,GAGCTCAAATCCGCAGCCTGGTGGGGAGGGGAGGTGGGTCCGGAGTCACCTAGTGCAG,13400 fluorescence intensity (a.u.)
18,AATAGTAGGAAGTGTGCTATATTATTATCCTTGCTCTCATCGGAGTCACCTAGTGCAG,8720 fluorescence intensity (a.u.)
19,CGACCGTTTGTATATTTTTGCCTGATAATTAAGTTGGATACGGAGTCACCTAGTGCAG,9970 fluorescence intensity (a.u.)
20,CTCCGAGGCCGGCGCCGCTGACGATGTCGTCCTAGTCTTCCGGAGTCACCTAGTGCAG,9010 fluorescence intensity (a.u.)
21,GTAATTAACCAGAATTCAGGTTTTGTCAGTGCCACCATCACGGAGTCACCTAGTGCAG,9850 fluorescence intensity (a.u.)

# Part of the list above in another layout:
row | Sequence | binding signal
4 | CATAAAGAGGGTGGTCGCGTTTCTTCTTCCATTTTTAATTCGGAGTCACCTAGTGCAG | 10400 fluorescence intensity (a.u.)
7 | ATACGACATTCACCAGTAATCTAATGATCCAATGATCCTACGGAGTCACCTAGTGCAG | 8360 fluorescence intensity (a.u.)
13 | TTCCTACCATCACTTCTCTCGTTTTGCTATCGATCTCATGCGGAGTCACCTAGTGCAG | 9180 fluorescence intensity (a.u.)
14 | AGCCACGACCCAATCTTCGCTGCGGTTGACTTTAAATTAACGGAGTCACCTAGTGCAG | 9760 fluorescence intensity (a.u.)
16 | CACACCTCTCACAATAATTATGGATGTTATACCTGGTAATCGGAGTCACCTAGTGCAG | 9340 fluorescence intensity (a.u.)
17 | GAGCTCAAATCCGCAGCCTGGTGGGGAGGGGAGGTGGGTCCGGAGTCACCTAGTGCAG | 13400 fluorescence intensity (a.u.)
18 | AATAGTAGGAAGTGTGCTATATTATTATCCTTGCTCTCATCGGAGTCACCTAGTGCAG | 8720 fluorescence intensity (a.u.)

# More results.

row,Sequence,binding signal
1,TTTCATTTTTTTTTACCACCTCACCTTCTGTGTTTCTTTTCGGAGTCACCTAGTGCAG,9040 fluorescence intensity (a.u.)
2,ATCCCTGCTCCAGCGCGATGTCGTCGATGGCTTCCACCCGCGGAGTCACCTAGTGCAG,8500 fluorescence intensity (a.u.)
3,ATGGGTTTTTTGGGCTTGTAATATGCTAGTGTTAATAGTCCGGAGTCACCTAGTGCAG,9020 fluorescence intensity (a.u.)
4,GCTATCTCGCCGTACCGCCGTCGCCGCTTCCTCTCGCACGCGGAGTCACCTAGTGCAG,15200 fluorescence intensity (a.u.)
5,GTTTTGCATGTCCGTATTTAGTATGAATCTTTATAAGATTCGGAGTCACCTAGTGCAG,8710 fluorescence intensity (a.u.)
6,GGGTGGGTAGACCGCGCCACCTACATGTCTCATTAGTACACGGAGTCACCTAGTGCAG,8320 fluorescence intensity (a.u.)
7,AGAGCGTCTCATCGACTCTCTTACCCCGGTTTCTTCCGCGCGGAGTCACCTAGTGCAG,8790 fluorescence intensity (a.u.)
8,AAATATTGATGTTTTTCATGCCGTCCATTTCACGACATCACGGAGTCACCTAGTGCAG,8060 fluorescence intensity (a.u.)
9,ACATTTGTTGGTGGACTGCAATTTTCTTTCTCAGCTTTAACGGAGTCACCTAGTGCAG,11100 fluorescence intensity (a.u.)
10,TCATGGTTCTTTTGATTAGTTCATGATGGTTTTGAAATTACGGAGTCACCTAGTGCAG,8890 fluorescence intensity (a.u.)
11,TCCAACCATTACTGCATCGCGTCAGCTCACGTGGACCCACCGGAGTCACCTAGTGCAG,8260 fluorescence intensity (a.u.)
12,CTCTCAGCACTCTGCTCTAGTTTCTTGGAGGTCCTGCACCCGGAGTCACCTAGTGCAG,8470 fluorescence intensity (a.u.)
13,ACCCAAAAACTGTCCCTTATTTGCTACCGGTACCATTACGCGGAGTCACCTAGTGCAG,8570 fluorescence intensity (a.u.)
14,ATTTTAATCAATGTCATGTTGTGTTCTGCGTGCATGTTTTCGGAGTCACCTAGTGCAG,10700 fluorescence intensity (a.u.)
15,ATGAGCATTATCCATCAGTATCCGCTACGTTTTCATCCCACGGAGTCACCTAGTGCAG,8120 fluorescence intensity (a.u.)
16,CTCCTCTCGCCGCCGCCGCCACCGCCACCGCCGCCGCTCCCGGAGTCACCTAGTGCAG,10100 fluorescence intensity (a.u.)
17,TGGCTAACAGGTTTTACATTATTTGGTCCATAATTAACTACGGAGTCACCTAGTGCAG,8710 fluorescence intensity (a.u.)
18,TTCCCAAACTCGATCACTCGCTTCTCTCACCTGCTCGAGACGGAGTCACCTAGTGCAG,8970 fluorescence intensity (a.u.)
19,CTCGTCTCTCTCCTATCCGTCTCCTACAGTCGTCGTCCTCCGGAGTCACCTAGTGCAG,10800 fluorescence intensity (a.u.)
20,TGGCTCCTCCATGACTCCATCCACGAGTGCAGCCTCTGCCCGGAGTCACCTAGTGCAG,8130 fluorescence intensity (a.u.)
21,TTTATTTTCTTGTGACTTGATTTATCATCAAATGTTCTTTCGGAGTCACCTAGTGCAG,9610 fluorescence intensity (a.u.)

row,Sequence,binding signal
1,TCACTCCATCCATCTAACCAAACATCCTATCACAAAATTTCGGAGTCACCTAGTGCAG,8990 fluorescence intensity (a.u.)
2,TTGGGTGGATTAGAGTTTAAATCCTTTCAATTTCATGTTTCGGAGTCACCTAGTGCAG,9320 fluorescence intensity (a.u.)
3,GAACTAAACCGCGGGCCTTACTTCTGTTCGTACTAGTATGCGGAGTCACCTAGTGCAG,9420 fluorescence intensity (a.u.)
4,GCCTTTGTCGGTCATGTTCCCATCGCTTTAGTTCTTCTCACGGAGTCACCTAGTGCAG,15000 fluorescence intensity (a.u.)
5,CAACCCAACTCGGTCGTCGTCGTCGTCTTCCTCTCGAATCCGGAGTCACCTAGTGCAG,9900 fluorescence intensity (a.u.)
6,TTGTGATCCTAGCCTGCAACATATGTAGTATTCCTATCCTCGGAGTCACCTAGTGCAG,8940 fluorescence intensity (a.u.)
7,CACTTCTCTCTCTCTCTCTCTCTCGTCTCGCAACAATTTTCGGAGTCACCTAGTGCAG,11200 fluorescence intensity (a.u.)
8,ATGTGCTCGTGTTTTACTTTTACAATCTTCATTCCAAAATCGGAGTCACCTAGTGCAG,10300 fluorescence intensity (a.u.)
9,GACGCGAACCGCCTCATTCTTCAATGCCCCAACCACATTTCGGAGTCACCTAGTGCAG,8240 fluorescence intensity (a.u.)
10,CTTCAGTCTATTCTTCTTCTTTTCTTCCTTATCACAAAAACGGAGTCACCTAGTGCAG,8920 fluorescence intensity (a.u.)
11,GATTTTTTCCGGCGGTAGGCGCCGCTCTATGTTGTTCGTCCGGAGTCACCTAGTGCAG,8480 fluorescence intensity (a.u.)
12,TGGGATCGAATAGCATTGGTTTATATTTTAGTGAGATCATCGGAGTCACCTAGTGCAG,10300 fluorescence intensity (a.u.)
13,TTGGTGGGTGGCGCGGTGGCCGGACCTGGGGTGGTGGGCGCGGAGTCACCTAGTGCAG,15900 fluorescence intensity (a.u.)
14,TAGCGTCTGTTTCAGCCGTTTGATTGTCTTGATTCTATAACGGAGTCACCTAGTGCAG,8560 fluorescence intensity (a.u.)
15,CGTCGCTGCTGCCGCGCGCCTCCGCTCCATTCCTGATTCCCGGAGTCACCTAGTGCAG,9200 fluorescence intensity (a.u.)
16,GCGTTTTCGGCGGGGAACGCGGGGAGGCGGGTGGGGTTGACGGAGTCACCTAGTGCAG,21800 fluorescence intensity (a.u.)
17,AACGGTTCATTTTTATTTTTGTTATTTTTTCTCAAAAAATCGGAGTCACCTAGTGCAG,8380 fluorescence intensity (a.u.)
18,TTTTTGTCTTGTTTAAGGGCGGGCGCAAGAGGGGCCGGGTCGGAGTCACCTAGTGCAG,9980 fluorescence intensity (a.u.)
19,TCTCTCTCTCGATCGAATCTCTTTCGAATTTTCCAAAACCCGGAGTCACCTAGTGCAG,8560 fluorescence intensity (a.u.)
20,TATTATTGGTCAAAAATAATATCTCGTTGACCGTGTCAAACGGAGTCACCTAGTGCAG,10300 fluorescence intensity (a.u.)
21,ATGTTGGATTGTGGGTGGAGTTAGAAAAAATCATCCCTGACGGAGTCACCTAGTGCAG,8390 fluorescence intensity (a.u.)

# — publication PMC7819943, “Rice protein-binding microarrays: a tool to detect cis-acting elements near promoter regions in rice”
